Experimental data: PubChem BioAssay AID504774 (Drosophila RNAi Screening Center, 2011)
In all, the deposit lists about 23,000 reagents; this is an unselected part of those that have a named target and a result. 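Values are quantile-normalised luminescence on an arbitrary scale; higher means more cells surviving MMS.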 A plus sign joins genes that one reagent is predicted to hit. Further read-outs or replicates are left out here.

- Purpose: 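Knock-downs that shift viability of MMS-exposed cells relative to untreated ones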 (primary screen)
- Cells: Drosophila Kc167 cells
- Knock-down reagent: long dsRNA against Drosophila genes, about 0.25 µg dsRNA per well
- Duration: about 6 days: 3 days knock-down, then 3 days with or without MMS
- Conditions: methyl methanesulphonate 0.004% (w/v) for 3 days after knock-down
- Measured: 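ATP-dependent luminescence as a measure of live cells in MMS-exposed wells, quantile normalised within each plate, with replicate values also given as a mean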
- Direction: mean viability with MMS and viability with MMS: higher = more surviving cells after MMS

CG6171 [DRSC15982] showed mean viability with MMS 3.43e6; viability with MMS, replicate 1 = 3.87e6.
Silencing of Grip71 [DRSC02042] came out at: mean viability with MMS 3.47e6; viability with MMS, replicate 1 = 3.91e6.
Tsp42Ei (Tetraspanin 42Ei) [DRSC06189] scored mean viability with MMS 3.63e6; viability with MMS, replicate 1 = 4.15e6.
Knock-down of CG1910 [DRSC15400] came out at: mean viability with MMS 3.59e6; viability with MMS, replicate 1 = 4.09e6.
With knock-down of CG31326 [DRSC16532] the results were mean viability with MMS 3.39e6; viability with MMS, replicate 1 = 3.83e6.
Vm34Ca (Vitelline membrane 34Ca) [DRSC03475] showed mean viability with MMS 3.48e6; viability with MMS, replicate 1 = 3.98e6.
Knock-down of CG14538 (retired record) [DRSC02396] gave: mean viability with MMS 3.34e6; viability with MMS, replicate 1 = 3.99e6.
For Cpr62Bb (Cuticular protein 62Bb) [DRSC08404], the entry reads mean viability with MMS 3.63e6; viability with MMS, replicate 1 = 4.12e6.
After knock-down of CG6294 + CG6299 + CG15642 [DRSC19981], the screen gave mean viability with MMS 3.64e6; viability with MMS, replicate 1 = 4.07e6.
CG6324 [DRSC19985] showed mean viability with MMS 3.60e6; viability with MMS, replicate 1 = 4.08e6.
Knock-down of CG11000 [DRSC12158] gave: mean viability with MMS 3.72e6; viability with MMS, replicate 1 = 4.31e6.
With knock-down of CG7054 [DRSC16185], the record shows mean viability with MMS 3.55e6; viability with MMS, replicate 1 = 4.02e6.
After knock-down of Cyp18a1 (Cytochrome P450 18a1) [DRSC20235] the results were mean viability with MMS 3.47e6; viability with MMS, replicate 1 = 3.94e6.
Depletion of CG31827 + CG18478 [DRSC01958] gave: mean viability with MMS 3.41e6; viability with MMS, replicate 1 = 3.78e6.
With knock-down of Mlc2 (Myosin light chain 2) [DRSC16741], the record shows mean viability with MMS 3.71e6; viability with MMS, replicate 1 = 3.94e6.
CG31816 [DRSC01547] showed mean viability with MMS 3.60e6; viability with MMS, replicate 1 = 3.95e6.
Against casp (caspar) [DRSC07164] the deposit lists mean viability with MMS 3.64e6; viability with MMS, replicate 1 = 4.04e6.
After knock-down of Teh2 (tipE homolog 2) [DRSC08458], the record shows mean viability with MMS 3.49e6; viability with MMS, replicate 1 = 3.95e6.
Against CG9168 [DRSC08633], the entry reads mean viability with MMS 3.56e6; viability with MMS, replicate 1 = 4.01e6.
CG31029 [DRSC15422] showed mean viability with MMS 3.28e6; viability with MMS, replicate 1 = 3.66e6.
Knock-down of CG18268 + CG3014 [DRSC15319] came out at: mean viability with MMS 3.52e6; viability with MMS, replicate 1 = 4.07e6.
Silencing of CG33752 [DRSC05351] came out at: mean viability with MMS 3.52e6; viability with MMS, replicate 1 = 3.93e6.
For CG9514 [DRSC20190], the entry reads mean viability with MMS 3.55e6; viability with MMS, replicate 1 = 4.04e6.
Against CG9514 [DRSC20191], the entry reads mean viability with MMS 3.68e6; viability with MMS, replicate 1 = 4.15e6.
Against CG12902 [DRSC06217], the entry reads mean viability with MMS 3.54e6; viability with MMS, replicate 1 = 4.00e6.
For ND-B8 (NADH dehydrogenase (ubiquinone) B8 subunit) [DRSC00449], the entry reads mean viability with MMS 3.52e6; viability with MMS, replicate 1 = 3.99e6.
Against caz (cabeza) [DRSC20317], the values are mean viability with MMS 3.47e6; viability with MMS, replicate 1 = 3.91e6.
After knock-down of caz (cabeza) [DRSC22594], the screen gave mean viability with MMS 3.39e6; viability with MMS, replicate 1 = 3.88e6.
Knock-down of caz (cabeza) [DRSC23280] came out at: mean viability with MMS 3.49e6; viability with MMS, replicate 1 = 4.01e6.
Knock-down of CG32452 [DRSC11581] came out at: mean viability with MMS 3.49e6; viability with MMS, replicate 1 = 3.98e6.
After knock-down of CG32452 [DRSC22250], the record shows mean viability with MMS 3.55e6; viability with MMS, replicate 1 = 3.98e6.
After knock-down of Obp99b (Odorant-binding protein 99b) [DRSC16264] the results were mean viability with MMS 3.33e6; viability with MMS, replicate 1 = 3.73e6.
Against Pgant4 (Polypeptide N-Acetylgalactosaminyltransferase 4) [DRSC00717], the values are mean viability with MMS 3.73e6; viability with MMS, replicate 1 = 4.17e6.
Against p (pink) [DRSC16560], the entry reads mean viability with MMS 3.45e6; viability with MMS, replicate 1 = 3.93e6.
For GAPcenA (GTPase activating protein and centrosome-associated) [DRSC10771], the entry reads mean viability with MMS 3.76e6; viability with MMS, replicate 1 = 4.25e6.

2 consecutive entries already listed, quoted:
CG6171 [DRSC15982]: mean viability with MMS = 3.43e6; viability with MMS, replicate 1 = 3.87e6
Grip71 [DRSC02042]: mean viability with MMS = 3.47e6; viability with MMS, replicate 1 = 3.91e6
